# Measurements reported in the supplement of paper PMC10338343.
# ± gives the standard deviation. The list shows a part of the results, in another mix than the full data. The uncertainty is large for many entries.
# How the values were obtained:
# [1] = test system: MILI (PIWIL2) piRISC loaded with L1MC piRNA (26 nt); test: pre-steady-state target cleavage rate (min^-1); MIWI and MILI are mouse PIWI proteins and EfPiwi is from a freshwater sponge; tags in brackets are library labels; higher = faster piRNA-guided slicing of the target; settings: guide: L1MC piRNA 5'p-UAACUAAAUACUAUGCAAGCUGUAGG
# In short: (§1)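 The pre-steady-state cleavage rate was calculated from a burst-and-steady-state fit. Data came from Cleave-'n-Seq, in which […] transcribed, DNA-blocked target RNA library was mixed with 1 nM active affinity-purified piRISC carrying one synthetic guide, with or without 500 nM GTSF1 partner protein, in HEPES–potassium acetate buffer at 33 °C for 0–8 or 0–960 min. Uncleaved targets were sequenced and normalised to depth and to weakly complementary targets, three trials were pooled, and k3 was capped at 0.0001 min^-1.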
# [2] = test system: MIWI (PIWIL1) piRISC loaded with L1MC piRNA (30 nt); test: as above; settings: guide: L1MC piRNA 5'p-UAACUAAAUACUAUGCAAGCUGUAGGUCCU
# In short: as §1
# [3] = auxiliary factor: 500 nM mouse GTSF1
# [4] = auxiliary factor: none (no GTSF1)
# 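Also: 1 nM active piRISC with 0.1 nM target library at 33 °C single turnover.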
Sequence,"pre-steady-state target cleavage rate [1, 3]","pre-steady-state target cleavage rate [1, 4]","pre-steady-state target cleavage rate [2, 3]","pre-steady-state target cleavage rate [2, 4]"
UCCUGGAUGUCGUUGCAUACUAUUAAGUUA,0.000876 ± 0.009,0.000346 ± 0.017,0.000577 ± 0.016,0.000199 ± 0.04
UCCUGGAUGUCGAAGCAUAGUUAUUUAGUUA,0.00318 ± 0.0043,0.00199 ± 0.0032,0.000468 ± 0.019,0.00101 ± 0.0069
UCCUGGAUGUCGAAGCAUAGUUUUUAGUAA,0.00175 ± 0.0061,0.000732 ± 0.006,0.00029 ± 0.033,0.000221 ± 0.013
UCCUGGAUGUCGAUGCAUAGUAUUUAUUA,0.00695 ± 0.0047,0.000422 ± 0.013,0.00059 ± 0.021,0.000686 ± 0.0094
UCCUGGAUGUCGAACCAUAGUAUUUAAGUUA,0.000681 ± 0.0093,0.000171 ± 0.024,0.000529 ± 0.011,0.000265 ± 0.019
UCCUGGAUGUCGUUGCAUUAGUAUUUAGUUA,0.0014 ± 0.0066,0.00147 ± 0.0052,0.000104 ± 0.042,0.00115 ± 0.0072
UCCUGGAUGAGCUUGCAAUCUAUUUACAAA,0.000123 ± 0.048,0.00011 ± 0.033,0.000129 ± 0.025,0.000676 ± 0.0079
UCCUGGAUGUGCUUGGAUAGUAUUUACUUA,0.000445 ± 0.023,0.000141 ± 0.045,0.000665 ± 0.015,0.000806 ± 0.011
UCCUGGAUGUCGAAGCAUACUAUUUAGUUA,0.00193 ± 0.0065,0.000913 ± 0.0056,0.000959 ± 0.011,0.000859 ± 0.0067
UCCUGGAUGACCUUCCAUAGUAUUUAGUUA,0.024 ± 0.0096,0.00133 ± 0.0063,0.0036 ± 0.0052,0.000838 ± 0.0072
UCCUGGAUGUCGAACGUAAGAUAUUUAGUUA,,< 0.0001,0.000223 ± 0.017,
UCCUGGAUGUCGAACGUAUGUUUUUAGUUA,0.000369 ± 0.021,0.000191 ± 0.024,0.000364 ± 0.015,0.000278 ± 0.017
UCCUGGAUGUCGUUCGAUAGUAUUUAGUUA,0.00099 ± 0.0095,0.000388 ± 0.013,0.00016 ± 0.064,0.000461 ± 0.013
UCCUGGAUGUCGUUGCUAGUAUUUAGUUA,0.00138 ± 0.0058,0.00131 ± 0.0043,0.000585 ± 0.014,0.00139 ± 0.0047
UCCUGGAUGUCGUUGCAUAGUAUUGUAGUUA,0.00194 ± 0.0088,0.00131 ± 0.0076,0.00141 ± 0.01,0.00106 ± 0.007
UCCUGGAUGUCGAACGUAUCUUUUUUGUUA,0.000148 ± 0.04,0.000173 ± 0.027,0.000175 ± 0.028,0.000129 ± 0.032
UCCUGGAUGUCGAACGUAAGUAUUUCGUUA,,0.000228 ± 0.016,0.00024 ± 0.02,
UCCUGGAUGUCGAUGCUUAGUUUUUAGUUA,0.00221 ± 0.0051,0.00151 ± 0.0048,0.000307 ± 0.024,0.000544 ± 0.013
UCCUGGAUGUGCUUCGUUAGUAUUUAGUAA,0.00129 ± 0.0081,0.000865 ± 0.0074,0.000508 ± 0.022,0.000666 ± 0.012

Sequence,"pre-steady-state target cleavage rate [1, 3]","pre-steady-state target cleavage rate [1, 4]","pre-steady-state target cleavage rate [2, 3]","pre-steady-state target cleavage rate [2, 4]"
UCCUGGAACAGUUGCAUAGUAUUUAGUUA,0.2 ± 0.014,0.00668 ± 0.0022,0.337 ± 0.022,0.00545 ± 0.0021
UCCUGGAUGUCGUUGCAUUGUUUUUAGUUA,0.0014 ± 0.01,0.00305 ± 0.0041,0.000128 ± 0.09,0.000342 ± 0.022
UCCUGGAUGUGCUUGCAUACAUUUUAGAAA,0.000625 ± 0.014,0.000426 ± 0.012,0.000882 ± 0.012,0.000631 ± 0.009
UCCUGGAUGUGCUUCCAUAGUUUUUAGUUA,0.00233 ± 0.0057,0.000573 ± 0.012,0.00272 ± 0.0053,0.000511 ± 0.015
UCCUGGAUGUCGAACGUAAGUUUUUAGUAA,0.000148 ± 0.053,0.000461 ± 0.01,0.000152 ± 0.048,0.000157 ± 0.036
UCCUGGAUGUGCUUGGUAAGUAUUUAGUAA,0.00211 ± 0.0055,0.001 ± 0.0066,0.00084 ± 0.013,0.000284 ± 0.01
UCCUGGAUGUCGAACCAUAGUUUUUAGUAA,0.000226 ± 0.021,< 0.0001,0.000211 ± 0.019,0.000321 ± 0.015
UCCUGGAUGUCCUUGCUUAGUAUUUAGAUA,0.0358 ± 0.0092,0.00226 ± 0.0024,0.00397 ± 0.004,0.00153 ± 0.0049
UCCUGGAUGUCGAAGCAUAGUAUUUAUGUUA,0.022 ± 0.0065,0.00179 ± 0.0037,0.00149 ± 0.006,0.000515 ± 0.014
UCCUGGAUGUCGAACGAUAGUAUUUAGUUUA,0.000278 ± 0.025,0.000346 ± 0.016,,0.000513 ± 0.0096
UCCUGGAUCAGCUUGCAUAGUUAAAUCAAA [g10:g22:cont:t1A],,0.000969 ± 0.0057,,0.000907 ± 0.0065
UCCUGGAUGUCGUUGCUUAGAAUUUAGUUA,0.000816 ± 0.0091,0.000412 ± 0.011,0.000237 ± 0.04,
UCCUGGAUGUCGAACCAUAGUUUUUAGUUA,,0.000249 ± 0.016,,0.000305 ± 0.02
UCCUCCUACAGCUUGCAUAGUAUAAACAAA,0.165 ± 0.043,0.000929 ± 0.0058,,0.000722 ± 0.0075
UCCUGGAUGUGCUUGCAUAGAAAUUAGUUA,0.00244 ± 0.0048,0.00194 ± 0.0034,0.00115 ± 0.01,0.00139 ± 0.0049
UCCUGGUACAGCUAGCAUAGUAAUUAGUUA,0.236 ± 0.041,0.00483 ± 0.0027,0.379 ± 0.053,0.00998 ± 0.0037
UCCUGGAUGUCGAACGUUACAUUUUAGUUA,0.000162 ± 0.045,0.000325 ± 0.014,,0.000377 ± 0.015
UCCUGGAUGUGCUUGCAUUCUAUUUAGUAA,0.00199 ± 0.0058,0.00073 ± 0.0073,0.00164 ± 0.0083,0.000704 ± 0.0067

# Given bar-delimited: entries from further up
Sequence | pre-steady-state target cleavage rate [1, 3] | pre-steady-state target cleavage rate [1, 4] | pre-steady-state target cleavage rate [2, 3] | pre-steady-state target cleavage rate [2, 4]
UCCUGGAUGUCGAUGCUUAGUUUUUAGUUA | 0.00221 ± 0.0051 | 0.00151 ± 0.0048 | 0.000307 ± 0.024 | 0.000544 ± 0.013
UCCUGGAUGUGCUUCGUUAGUAUUUAGUAA | 0.00129 ± 0.0081 | 0.000865 ± 0.0074 | 0.000508 ± 0.022 | 0.000666 ± 0.012
